We go through one compound from patent publication US6387241B1, “Method of sterilization using ozone” (priority 1993, dated 2002).

A short description of this data set: Air venting and ozone venting of napthalene in Ottawa sand.
[1] abbreviates: Ottawa sand, air stripping 23 hours followed by ozone-venting 3.2 hours.
The mark [2] stands for this setting: dry Ottawa sand, air venting for 37 hours.

SMILES strings stand for the structures.

As to `c1ccc2ccccc2c1` [napthalene], under setting [1], the removal result was “approx. 99.7%” and the residual stood at 0.65 mg/L. Under setting [2], the removal entry is “approximately 65%” and the residual concentration is on record as 23.2 mg/kg soil.
